Data source: PubChem BioAssay AID1224830 (NIAID, 2016)

Aim: 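Genes whose knock-down alters the TNF-alpha reporter response to LPS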 (primary screen)
Cell system: human THP-1 monocytic leukaemia cells, TNF dual-luciferase reporter clone, PMA-differentiated to macrophage-like cells
Reagent: siRNA pool against human genes, 50 nM
Duration: LPS for 4 h, given about 3 days after siRNA transfection
Challenge: bacterial LPS (TLR4 ligand), 10 ng/ml
Measurement: 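TNF firefly reporter luminescence divided by renilla, normalised to the plate median, then turned into a robust z-score for each replicate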
Scale: TNF reporter robust z-score: higher = stronger TNF reporter response to LPS
Rule for the call: 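a well is active when its z-score exceeds 2.8 or falls below -1.5; control wells carry no call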
The deposit covers about 18,000 reagents; below is an unselected part. Of all reagents, about 2,900 (16%) are marked active. 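Calls are made per well; low scores hint the gene aids the LPS response, high scores that it dampens it.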 Entries without a mark were called inactive. Repeated entries: four replicate wells of each siRNA pool. Reagent sequences are not shown.

Against SAMD4A (sterile alpha motif domain containing 4A) the deposit lists TNF reporter robust z-score 1.43.
With knock-down of SAMD4A (sterile alpha motif domain containing 4A), the screen gave TNF reporter robust z-score 2.1.
Silencing of SAMD4A (sterile alpha motif domain containing 4A) gave: TNF reporter robust z-score 0.48.
Silencing of SAMD4A (sterile alpha motif domain containing 4A) came out at: TNF reporter robust z-score 0.25.
With knock-down of C8B (complement C8 beta chain) the results were TNF reporter robust z-score 0.58.
Knock-down of C8B (complement C8 beta chain) resulted in: TNF reporter robust z-score 0.56.
After knock-down of C8B (complement C8 beta chain), the screen gave TNF reporter robust z-score 0.02.
C8B (complement C8 beta chain) showed TNF reporter robust z-score 0.45.
Knock-down of TPM1 (tropomyosin 1) gave: TNF reporter robust z-score 1.42.
Against TPM1 (tropomyosin 1) the deposit lists TNF reporter robust z-score 1.22.
TPM1 (tropomyosin 1) scored TNF reporter robust z-score 0.54.
After knock-down of TPM1 (tropomyosin 1), the screen gave TNF reporter robust z-score 1.02.
SIRT7 (sirtuin 7) scored TNF reporter robust z-score -0.05.
Against SIRT7 (sirtuin 7), the entry reads TNF reporter robust z-score 1.43.
SIRT7 (sirtuin 7) showed TNF reporter robust z-score 0.18.
Against SIRT7 (sirtuin 7), the values are TNF reporter robust z-score 1.58.
Silencing of PSMB6 (proteasome 20S subunit beta 6) resulted in: TNF reporter robust z-score -0.21.
After knock-down of PSMB6 (proteasome 20S subunit beta 6), the record shows TNF reporter robust z-score -0.4.
With knock-down of PSMB6 (proteasome 20S subunit beta 6), the record shows TNF reporter robust z-score 0.08.
PSMB6 (proteasome 20S subunit beta 6) scored TNF reporter robust z-score -0.76.
